Primary screen of a compound library

Source: ChEMBL document CHEMBL3988442, “University of Dundee, Small-Polar-MMV Screening Library” (2021).

Mtb growth Cornell: 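Whole-cell assay for inhibitors of Mycobacterium tuberculosis growth, labelled Cornell in the record; the read-out is not stated. The concentration is filed as 10 mM, unlikely as a test dose, so the dose is not known. The record gives no direction; compounds strong in two other growth screens of this library score well above the rest, so higher reads as stronger inhibition. About 53,000 compounds were tested under these conditions; 1.7% (about 900) showed 50% or more at least once.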
Mtb heat-shock: 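Assay on Mycobacterium tuberculosis, filed only as a heat shock assay from Cornell; the read-out is not stated. The concentration is filed as 10 mM, unlikely as a test dose, so the dose is not known. The record gives no direction; compounds that gave an IC50 in retests scored well above the rest, so higher reads as stronger inhibition. Of about 69,000 compounds tested this way, about 930 (1.4%) reached 50% or more in at least one test.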

The filed quantity is “Percent Effect” (%).
The record does not define 0% and 100%; most values in the screen are far below 50% and negative numbers occur (in some assays of this library far below -100).
This is an unselected part of the compounds tested.
A dash means the value is not listed here; it may have been measured.

compound	Mtb growth Cornell	Mtb heat-shock
CCN1CCC2(CCN(Cc3ccc(OC)cc3)CC2)C1=O.O=C(O)C(F)(F)F	7.184%	-24.62%
CCc1nc(CN2CCCC(NCc3nnc(C4CC4)n3C)C2)no1 (stereo not drawn)	-	4.639%
O=C(c1ccc(-n2cnnc2)cc1)N1CCCC(n2ccnc2)C1 (stereo not drawn)	15.63%	7.14%
Cc1nn(C)c(C)c1CC(=O)N1CCCC(n2ccnc2)C1 (stereo not drawn)	21.98%	-0.01263%
CS(=O)(=O)NCC1CCCN(C(=O)Nc2cccnc2N2CCCC2)C1 (stereo not drawn)	-14.32%	-5.72%
CN(C)CCCN(Cc1cnn(C)c1)Cc1ccco1.O=C(O)CC(O)(CC(=O)O)C(=O)O	-7.514%	-9.937%
FC(F)Oc1ccc(NCc2nc(C3CC3)no2)c(OC(F)F)c1	31.78%	3.507%
Cc1noc(C)c1-c1nc(C2CCCNC2)ccc1CO.Cl.Cl (stereo not drawn)	8.189%	6.462%
CC(NC1(CNC(=O)OC(C)(C)C)CCOCC1)c1ccccc1 (stereo not drawn)	-	-9.019%
CC(C)CN1CCCC2(CCN(c3ccccn3)C2)C1.O=C(O)C(F)(F)F (stereo not drawn)	-14.26%	-14.81%
CCS(=O)(=O)Nc1ccc2oc(C)c(C(=O)OC)c2c1	26.22%	5.568%
O=C(CSCc1ccccn1)NCC1CC1	-18.1%	4.365%
O=C(O)C(F)(F)F.O=S1(=O)c2ccccc2C2(CCN(Cc3ccccc3)C2)N1CC1CC1 (stereo not drawn)	-	20.71%
CC1Cn2c(nc3c2c(=O)[nH]c(=O)n3C)O1 (stereo not drawn)	-12.37%	0.3914%
CCn1ccnc1CN(C)Cc1nc(Cc2cccc(F)c2)no1	-6.736%	-44.43%
Nc1nc2nc(C3CCCN(C(=O)c4cncs4)C3)ccc2s1 (stereo not drawn)	-7.105%	-17.62%
COC(C)c1noc(CN(C)c2nccnc2C#N)n1 (stereo not drawn)	-	6.366%
[H][C@@]12CS(=O)(=O)C[C@]1([H])N(Cc1ccc(C(C)=O)cc1)CCN2CCOC	-	23.24%
Cc1ccsc1CNC(=O)NC1CCCc2c1cnn2CCO (stereo not drawn)	-27.74%	-9.249%
Cc1cc(C)c2nc(CN3C[C@H](CCO)[C@@H](N)C3)cc(O)c2c1	-	-11.74%
CC(CNC(=O)N1CCSCC1)Cc1cccs1 (stereo not drawn)	24.2%	24.94%
O=C(c1ccnc(N2CCOC(c3ccc(Cl)cc3)C2)c1)N1CCCC1 (stereo not drawn)	3.357%	-13.38%
Cc1nc2n(n1)CC(NCC(=O)Nc1cc(C)on1)CC2 (stereo not drawn)	-	-8.832%
CC(C)Cn1c2c(ccc1=O)CC(N)CC2 (stereo not drawn)	-	-2.844%
Cc1n[nH]c(C)c1CNCC(O)c1ccc(F)c(F)c1 (stereo not drawn)	-6.593%	-16.03%
Cc1cc(CN(C)C(=O)c2ccc(F)cc2F)no1	-39.35%	18.56%
Cc1ccc(Cl)cc1N1CCC(CNC(=O)Cn2cccn2)C1 (stereo not drawn)	-	6.122%
Cc1nc2c(N3CCC(O)(Cn4ccnc4)CC3)ncnc2o1	-	-42.53%
COCCN(Cc1ccccc1)Cc1nc(-c2ccsc2)no1	50.54%	2.94%
CN(C)CCNC(=O)c1sccc1N(C)S(=O)(=O)c1ccc(Cl)cc1	4.611%	-19.64%
CCCc1cc(N2CCC(NC3CCS(=O)(=O)C3)CC2)nc(C)n1 (stereo not drawn)	13.13%	-43.21%
CCOCCCNC(=O)C1CCC(=O)N(CCc2ccc(Cl)cc2)C1 (stereo not drawn)	21.1%	-10.7%
CN(CCN1CCCCCC1)c1nccc(N2CCC(O)C2)n1 (stereo not drawn)	-	9.53%
Cc1nccc(C(=O)N2CCCC(c3cc(C(F)(F)F)[nH]n3)C2)n1 (stereo not drawn)	-	-0.2601%
c1cnc(-c2nn3c(CN4CCCCCC4)nnc3s2)cn1	-	8.867%
Cc1noc(C)c1CCC(=O)NCCc1cccs1	-4.708%	11.5%
COCCN1CCC2(CC1)CC(OCC1CC1)c1ccc(C)cc12 (stereo not drawn)	22.66%	53.27%
COc1ccccc1CNC(C)c1cnc2cc(C)nn2c1C (stereo not drawn)	4.618%	26.24%
Cc1nonc1CN(C)Cc1cnn(-c2ccc(Cl)cc2)c1	13.68%	42.35%
CN1CC(=O)N(c2ccccc2)CC12CCN(Cc1nccs1)C2.O=C(O)C(F)(F)F.O=C(O)C(F)(F)F (stereo not drawn)	9.162%	2.682%
CCOc1ncccc1CNC(=O)NCCNC(=O)c1ccco1	0.1336%	-8.213%
CC(C)OCCCNC(=O)NC(C)c1ccc(-n2cncn2)cc1 (stereo not drawn)	8.757%	-6.666%
COCCc1noc(CN2CCCC2c2noc(C(C)C)n2)n1 (stereo not drawn)	-9.076%	-25.07%
CCN1C(=O)C2(CCN(CCN(C)C)CC2)c2ccccc21.O=C(O)C(F)(F)F.O=C(O)C(F)(F)F	14.26%	-13.81%
CC(C)(C)c1csc(CN2CCN(S(=O)(=O)c3cccnc3)CC2)n1	-26.11%	13.83%
CC(C)Oc1ccc(C(=O)N2CC[C@H](O)[C@@H](n3ccnc3)CC2)cc1	-23.71%	-30.84%
COc1ccccc1CNC(=O)CNc1ccccc1C(C)=O	-6.936%	14.1%
Fc1cccnc1N1CCC2(CNCCC2(F)F)C1 (stereo not drawn)	-13.19%	7.515%
[H][C@@]12CN(CC3CC3)C[C@]1([H])[C@H](OC)CCN2c1ncc(F)cn1	9.092%	-26.05%
Cc1ncsc1CNC(=O)CCN1CCN(c2ccccn2)CC1	27.12%	-16.33%

The last 4 entries again:

{"compound": "COc1ccccc1CNC(=O)CNc1ccccc1C(C)=O", "Mtb growth Cornell": -6.936, "Mtb heat-shock": 14.1}
{"compound": "Fc1cccnc1N1CCC2(CNCCC2(F)F)C1", "stereo": "stereo not drawn", "Mtb growth Cornell": -13.19, "Mtb heat-shock": 7.515}
{"compound": "[H][C@@]12CN(CC3CC3)C[C@]1([H])[C@H](OC)CCN2c1ncc(F)cn1", "Mtb growth Cornell": 9.092, "Mtb heat-shock": -26.05}
{"compound": "Cc1ncsc1CNC(=O)CCN1CCN(c2ccccn2)CC1", "Mtb growth Cornell": 27.12, "Mtb heat-shock": -16.33}